Results from PubChem BioAssay (NCATS).
The shares of active, inactive and inconclusive entries below differ from those in the screen. Potencies of inconclusive entries are doubtful fits and often do not repeat. Active and inactive are the calls of the source. Calls come from the whole dose curve; as a rule, active = well fitted curve in the direction sought with a large enough effect; inconclusive = small, poorly fitted or top-dose-only effect, or another doubt; inactive = no such curve, though single readings can be large; an effect the other way counts as inactive or inconclusive.

Legend:
[1] = Quantitative High-Throughput drug screen in 47 multiple myeloma cell lines against the NCATS MIPE library collection: JIM3_ECACC cell viability assay (AID 1918963; note: nearly all actives have a fitted effect of over 35% in size); conditions: JIM3 myeloma viability, CellTiter-Glo ATP, 48 h; series mostly up to 45.8 µM
Procedure, shortened: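 We plated 500 myeloma cells per well, pinned in MIPE 4.0 compounds, and incubated for 48 hours at 37C. ATP was then quantified with CellTiter-Glo, with DMSO and media-only wells defining 100% and 0%.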

[2] = Quantitative High-Throughput drug screen in 47 multiple myeloma cell lines against the NCATS MIPE library collection: JIM1_ECACC cell viability assay (AID 1918964); conditions: JIM1 myeloma viability, CellTiter-Glo ATP luminescence, 48 h; viability (% of DMSO): at 45.8 µM (top of the series)
Procedure, shortened: (§1)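 CellTiter-Glo luminescence (ATP) after 48 h compound exposure, 37C/5% CO2; 500 cells/well; MIPE 4.0 approved/investigational drugs pinned in; DMSO = 100%, media only = 0% viability.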

[3] = Quantitative High-Throughput drug screen in 47 multiple myeloma cell lines against the NCATS MIPE library collection: JJN3_DSMZ cell viability assay (AID 1918966; note: nearly all actives have a fitted effect of over 50% in size); conditions: JJN3 myeloma cells viability, CellTiter-Glo ATP, 48 h; series mostly up to 45.8 µM
Procedure, shortened: as §1

[4] = Quantitative High-Throughput drug screen in 47 multiple myeloma cell lines against the NCATS MIPE library collection: H1112_PLB cell viability assay (AID 1918967; note: nearly all actives have a fitted effect of over 30% in size); conditions: H1112 myeloma cells viability, ATP luminescence, 48 h; viability: at 45.8 µM (top of the series)
Procedure, shortened: as §1

[5] = Quantitative High-Throughput drug screen in 47 multiple myeloma cell lines against the NCATS MIPE library collection: Karpas25_ECACC cell viability assay (AID 1918968; note: nearly all actives have a fitted effect of over 35% in size); conditions: Karpas25 myeloma viability, CellTiter-Glo ATP, 48 h; viability (% of control): at 45.8 µM (top of the series)
Procedure, shortened: as §1

[6] = Quantitative High-Throughput drug screen in 47 multiple myeloma cell lines against the NCATS MIPE library collection: KMS27_JCRB cell viability assay (AID 1918970); conditions: KMS27 myeloma cells, CellTiter-Glo ATP viability, 48 h; viability (% of DMSO): at 45.8 µM (top of the series); note: nearly all actives have a fitted effect of over 30% in size
Procedure, shortened: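 KMS27_JCRB myeloma cells, 500 per well, exposed 48 h at 37 C, 5% CO2 to MIPE 4.0 compounds. Viability from ATP by CellTiter-Glo luminescence, normalized to DMSO (100%) and medium-only (0%) wells.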

[7] = Quantitative High-Throughput drug screen in 47 multiple myeloma cell lines against the NCATS MIPE library collection: KMS12BM_JCRB cell viability assay (AID 1918971); note: nearly all actives have a fitted effect of over 35% in size
Procedure, shortened: (§2)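 Myeloma cells (500 per well) were exposed to MIPE 4.0 compounds by pin transfer and incubated 48 hours at 37C, 5% CO2. Viability was read as ATP by CellTiter-Glo luminescence, normalised to DMSO (100%) and media-only (0%) wells.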

[8] = Quantitative High-Throughput drug screen in 47 multiple myeloma cell lines against the NCATS MIPE library collection: KMS20_JCRB cell viability assay (AID 1918973); conditions: CellTiter-Glo ATP, 48 h; viability (% of DMSO): at 45.8 µM (top of the series); note: nearly all actives have a fitted effect of over 45% in size
Procedure, shortened: as §1

[9] = Quantitative High-Throughput drug screen in 47 multiple myeloma cell lines against the NCATS MIPE library collection: KMS21BM_JCRB cell viability assay (AID 1918974); conditions: ATP luminescence, 48 h; viability: at 45.8 µM (top of the series) unless noted
Procedure, shortened: as §1

[10] = Quantitative High-Throughput drug screen in 47 multiple myeloma cell lines against the NCATS MIPE library collection: KMS26_JCRB cell viability assay (AID 1918975); conditions: KMS26 myeloma cells viability, CellTiter-Glo ATP, 48 h; viability (% of DMSO): at 45.8 µM (top of the series); note: nearly all actives have a fitted effect of over 45% in size
Procedure, shortened: as §2

[11] = Quantitative High-Throughput drug screen in 47 multiple myeloma cell lines against the NCATS MIPE library collection: MMM1_PLB cell viability assay (AID 1918976); note: nearly all actives have a fitted effect of over 35% in size
Procedure, shortened: (§3)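 Cells were exposed to library compounds for 48 hours, after which ATP was measured by CellTiter-Glo. Signal was taken as median relative luminescence units.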

[12] = Quantitative High-Throughput drug screen in 47 multiple myeloma cell lines against the NCATS MIPE library collection: MM1R_ATCC cell viability assay (AID 1918981); note: nearly all actives have a fitted effect of over 35% in size
Procedure, shortened: as §3

[13] = Quantitative High-Throughput drug screen in 47 multiple myeloma cell lines against the NCATS MIPE library collection: LP1_DSMZ cell viability assay (AID 1918982); note: nearly all actives have a fitted effect of over 35% in size
Procedure, shortened: as §3

[14] = Quantitative High-Throughput drug screen in 47 multiple myeloma cell lines against the NCATS MIPE library collection: KMS12PE_JCRB cell viability assay (AID 1918972); conditions: KMS12PE myeloma viability, CellTiter-Glo ATP, 48 h; viability: at 45.8 µM (top of the series); note: nearly all actives have a fitted effect of over 30% in size
Procedure, shortened: (§4)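 Viability readout: CellTiter-Glo luminescence following 5 min room-temperature incubation with reagent. Prior exposure: 48 h, 37C, humidified 5% CO2, 500 cells per well.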

[15] = Quantitative High-Throughput drug screen in 47 multiple myeloma cell lines against the NCATS MIPE library collection: MOLP8_DSMZ cell viability assay (AID 1918977); conditions: MOLP8 myeloma viability, CellTiter-Glo ATP luminescence, 48 h; viability (% of control): at 45.8 µM (top of the series); note: nearly all actives have a fitted effect of over 45% in size
Procedure, shortened: as §3

[16] = Quantitative High-Throughput drug screen in 47 multiple myeloma cell lines against the NCATS MIPE library collection: NCIH929_DSMZ cell viability assay (AID 1918978); note: nearly all actives have a fitted effect of over 35% in size
Procedure, shortened: as §3

[17] = Quantitative High-Throughput drug screen in 47 multiple myeloma cell lines against the NCATS MIPE library collection: OCIMY1_PLB cell viability assay (AID 1918979); note: nearly all actives have a fitted effect of over 35% in size
Procedure, shortened: as §3

[18] = Quantitative High-Throughput drug screen in 47 multiple myeloma cell lines against the NCATS MIPE library collection: MM1S_ATCC cell viability assay (AID 1918980); note: nearly all actives have a fitted effect of over 45% in size
Procedure, shortened: as §3

[19] = Quantitative High-Throughput drug screen in 47 multiple myeloma cell lines against the NCATS MIPE library collection: INA6_PLB cell viability assay (AID 1918965; note: nearly all actives have a fitted effect of over 55% in size); conditions: INA6 myeloma viability, CellTiter-Glo ATP luminescence, 48 h; viability (% of control): at 45.8 µM (top of the series)
Procedure, shortened: as §4

[20] = Quantitative High-Throughput drug screen in 47 multiple myeloma cell lines against the NCATS MIPE library collection: KMS28PE_JCRB cell viability assay (AID 1918983); note: nearly all actives have a fitted effect of over 35% in size
Procedure, shortened: as §3

Measured: Potency
Potency is the fitted concentration of half-maximal effect.

CN[C@@H](C)C(=O)N[C@H]1CCCC[C@H]2CC[C@@H](C(=O)N[C@@H](c3ccccc3)c3cn(CCCCc4ccc(CCCCn5cc([C@@H](NC(=O)[C@@H]6CC[C@@H]7CCCC[C@H](NC(=O)[C@H](C)NC)C(=O)N76)c6ccccc6)nn5)cc4)nn3)N2C1=O
inactive: [7]
active: [6] 18.7 µM | [8] 4.18 µM
inconclusive: [1] 0.0935 µM [cytotoxic, full curve] | [2] 20.9 µM [cytotoxic, partial curve, poor fit] | [3] 5.26 µM [cytotoxic, partial curve, poor fit] | [4] 5.26 µM [cytotoxic, partial curve] | [5] 18.7 µM [cytotoxic, partial curve] | [9] 33.2 µM [cytotoxic, single point] | [10] 4.69 µM [cytotoxic, partial curve, poor fit] | [11] 0.0148 µM [rising, full curve, poor fit] | [12] 1.48 µM [cytotoxic, full curve] | [13] 0.0118 µM [cytotoxic, full curve, poor fit]

NC(=O)c1ccc2nc(-c3ccc(Oc4ccc(Cl)cc4)cc3)[nH]c2c1
inconclusive: [2] 5.9 µM [cytotoxic, partial curve, poor fit] | [3] 3.72 µM [cytotoxic, partial curve, poor fit] | [6] 14.8 µM [cytotoxic, partial curve] | [7] 0.001 µM [cytotoxic] | [10] 3.32 µM [cytotoxic, partial curve, poor fit] | [15] 0.059 µM [cytotoxic, full curve, poor fit] | [17] 13.2 µM [cytotoxic, partial curve, poor fit] | [18] 4.18 µM [cytotoxic, partial curve, poor fit] | [12] 10.5 µM [cytotoxic, partial curve] | [13] 0.743 µM [cytotoxic, full curve, poor fit]
active: [1] 0.105 µM | [14] 9.35 µM | [8] 5.26 µM | [9] 18.7 µM | [16] 0.0235 µM
inactive: [4]

CC1(C)CCC(CN2CCN(c3ccc(C(=O)NS(=O)(=O)c4ccc(NCC5CCOCC5)c([N+](=O)[O-])c4)c(Oc4cnc5[nH]ccc5c4)c3)CC2)=C(c2ccc(Cl)cc2)C1
inconclusive: [2] 8.33 µM [cytotoxic, single point] | [19] 0.166 µM [cytotoxic, full curve, poor fit] | [5] 18.7 µM [cytotoxic, partial curve, poor fit] | [8] 0.0033 µM [cytotoxic, full curve, poor fit] | [9] 20.9 µM [rising, partial curve, poor fit]
inactive: [1]
active: [10] 18.7 µM | [13] 18.7 µM

CCOC(=O)c1ccc(OC(=O)CCCCCN=C(N)N)cc1
inactive: [2] | [3] | [5] | [7] | [15] | [13]
inconclusive: [1] 16.6 µM [rising, partial curve, poor fit] | [6] 0.296 µM [rising, full curve, poor fit] | [8] 5.26 µM [rising, partial curve, poor fit] | [9] 0.332 µM [rising, full curve, poor fit] | [10] 0.0017 µM [rising, full curve] | [11] 0.0118 µM [rising, full curve, poor fit] | [18] 0.059 µM [rising, full curve]

Nc1ncnc2nc(-c3ccc(N4CCOCC4)nc3)cc(-c3cccc(Br)c3)c12
inconclusive: [2] 118 µM [cytotoxic, partial curve, poor fit] | [3] 0.105 µM [cytotoxic, full curve, poor fit] | [4] 9.35 µM [cytotoxic, single point] | [5] 7.43 µM [cytotoxic, full curve] | [7] 0.0047 µM [cytotoxic, full curve, poor fit] | [8] 1.66 µM [cytotoxic, full curve, poor fit] | [9] 11.8 µM [rising, partial curve] | [15] 4.69 µM [cytotoxic, partial curve, poor fit] | [12] 29.6 µM [cytotoxic, single point] | [13] 20.9 µM [cytotoxic, partial curve, poor fit] | [20] 18.7 µM [cytotoxic, partial curve, poor fit]
inactive: [6] | [14] | [10]
active: [1] 18.7 µM | [11] 11.8 µM

COc1ccc(C(=O)CC(=O)c2ccc(C(C)(C)C)cc2)cc1
inconclusive: [1] 9.35 µM [cytotoxic, single point] | [2] 4.18 µM [cytotoxic, full curve, poor fit] | [19] 6.62 µM [cytotoxic, partial curve, poor fit] | [15] 6.62 µM [cytotoxic, full curve, poor fit] | [13] 10.5 µM [cytotoxic, full curve, poor fit]
active: [14] 5.26 µM

CS(=O)(=O)c1ccc(C2=C(c3ccccc3)C(=O)OC2)cc1
inconclusive: [2] 0.0021 µM [rising, full curve, poor fit] | [14] 14.8 µM [cytotoxic, partial curve, poor fit] | [9] 23.5 µM [cytotoxic, partial curve, poor fit] | [11] 0.0066 µM [rising, full curve, poor fit] | [18] 26.4 µM [cytotoxic, single point]
not listed: [3] | [4] | [13] | [16] | [17] | [20]
inactive: all other assays above

Clc1ccc(C(Cn2ccnc2)OCc2ccsc2Cl)c(Cl)c1 (stereo unspecified)
inconclusive: [1] 20.9 µM [cytotoxic, partial curve] | [2] 26.4 µM [cytotoxic, single point] | [4] 26.4 µM [cytotoxic, single point] | [7] 20.9 µM [cytotoxic, partial curve] | [8] 37.2 µM [cytotoxic, single point] | [9] 37.2 µM [cytotoxic, single point] | [11] 18.7 µM [cytotoxic, partial curve] | [15] 0.003 µM [rising, full curve, poor fit] | [17] 0.0662 µM [rising, full curve, poor fit] | [18] 33.2 µM [cytotoxic, single point] | [12] 23.5 µM [cytotoxic, partial curve] | [13] 23.5 µM [cytotoxic, single point] | [20] 23.5 µM [cytotoxic, single point]
active: [5] 20.9 µM
inactive: [3] | [10]

CCCCC(C=O)NC(=O)C(CC(C)C)NC(=O)OCc1ccccc1 (stereo unspecified)
inconclusive: [1] 9.35 µM [cytotoxic, partial curve, poor fit] | [2] 0.0372 µM [cytotoxic, full curve, poor fit] | [3] 10.5 µM [cytotoxic, partial curve, poor fit] | [5] 0.935 µM [cytotoxic, partial curve, poor fit] | [8] 9.35 µM [cytotoxic, partial curve, poor fit] | [9] 8.33 µM [rising, full curve, poor fit] | [15] 0.0418 µM [cytotoxic, full curve, poor fit] | [18] 16.6 µM [cytotoxic, partial curve, poor fit] | [12] 26.4 µM [cytotoxic, single point]
active: [13] 20.9 µM
inactive: [4]

Clc1cc(Cl)cc(CNc2ncncc2-c2ccc3c(c2)OCO3)c1
inconclusive: [2] 5.26 µM [cytotoxic, full curve] | [3] 16.6 µM [cytotoxic, partial curve, poor fit] | [4] 13.2 µM [cytotoxic, partial curve] | [5] 13.2 µM [cytotoxic, partial curve] | [7] 33.2 µM [cytotoxic, single point] | [14] 10.5 µM [cytotoxic, partial curve] | [8] 37.2 µM [cytotoxic, single point] | [9] 23.5 µM [cytotoxic, partial curve, poor fit] | [10] 37.2 µM [cytotoxic, single point] | [11] 0.0743 µM [rising, full curve, poor fit] | [16] 33.2 µM [cytotoxic, single point] | [17] 37.2 µM [cytotoxic, single point] | [18] 0.0093 µM [rising, full curve, poor fit] | [12] 37.2 µM [cytotoxic, single point] | [13] 33.2 µM [cytotoxic, single point] | [20] 33.2 µM [cytotoxic, single point]
inactive: [15]
active: [1] 16.6 µM
